These are yes or no findings as the source states them, for the method shown. Binding seen in cells or lysates may run through a third protein. A yes stands for co-enrichment or nearness to the bait. Other partners may have been found.

The chains behind the UniProt entries cited, without tags or fusion partners.
UniProt Q86Y07: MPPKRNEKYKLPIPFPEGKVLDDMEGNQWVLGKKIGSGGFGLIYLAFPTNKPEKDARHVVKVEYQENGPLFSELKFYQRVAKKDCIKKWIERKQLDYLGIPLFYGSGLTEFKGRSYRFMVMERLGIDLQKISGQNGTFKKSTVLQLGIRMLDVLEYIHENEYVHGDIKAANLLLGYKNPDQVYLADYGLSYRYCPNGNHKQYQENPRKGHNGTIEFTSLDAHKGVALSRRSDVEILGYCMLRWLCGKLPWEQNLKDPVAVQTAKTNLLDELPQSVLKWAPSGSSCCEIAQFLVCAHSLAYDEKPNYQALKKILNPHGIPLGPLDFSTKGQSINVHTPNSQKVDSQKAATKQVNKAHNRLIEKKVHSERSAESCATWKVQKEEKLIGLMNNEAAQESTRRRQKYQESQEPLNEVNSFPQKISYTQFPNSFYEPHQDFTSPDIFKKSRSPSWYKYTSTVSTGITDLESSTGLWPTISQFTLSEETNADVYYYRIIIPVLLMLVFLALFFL
UniProt Q13283: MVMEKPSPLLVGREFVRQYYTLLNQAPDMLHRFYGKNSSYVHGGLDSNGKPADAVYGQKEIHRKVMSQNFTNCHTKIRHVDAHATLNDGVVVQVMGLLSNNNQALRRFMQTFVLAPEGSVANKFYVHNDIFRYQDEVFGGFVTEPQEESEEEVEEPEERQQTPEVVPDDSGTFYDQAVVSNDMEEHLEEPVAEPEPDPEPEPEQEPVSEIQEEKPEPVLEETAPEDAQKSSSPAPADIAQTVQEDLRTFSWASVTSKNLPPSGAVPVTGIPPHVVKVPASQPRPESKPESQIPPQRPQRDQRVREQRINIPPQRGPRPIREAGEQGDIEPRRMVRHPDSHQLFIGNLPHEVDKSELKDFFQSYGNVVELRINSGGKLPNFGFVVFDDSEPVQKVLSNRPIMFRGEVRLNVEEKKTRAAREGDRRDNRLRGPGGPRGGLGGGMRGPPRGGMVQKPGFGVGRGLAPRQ

From paper PMC11982375 come the findings set out here.

In this experiment the target is Flag-VRK2 (human) (UniProt Q86Y07). Description: affinity purification with mass spectrometry; immunoprecipitation of Flag-VRK2 with Flag antibody followed by mass spectrometry analysis; cells not given.

In the case of “G3BP1 (found by mass spectrometry in the Flag-VRK2 immunoprecipitate) (from UniProt Q13283 1-466)”, the binding entry was “binds”.
